PubChem BioAssay AID901 (National Center for Advancing Translational Sciences (NCATS), 2007)
The list shows a part of the results. Further columns of the screen follow, without active or inactive calls. The list favours compounds with an active or inconclusive main result. Potencies come from curve fits of mixed quality, noted in brackets.

Assay: qHTS Assay for Identifying the Cell-Membrane Permeable IMPase Inhibitors
Conditions: CHO-M1 cells, IP1 accumulation, HTRF TR-FRET ratio; measured here: donor channel 620 nm AC50

Structure (SMILES)	AC50
COc1ccc2[nH]c(=O)c(COC(=O)c3ccco3)cc2c1	31.6 µM [rising, single point]
CCOC(=O)c1ccc(NC(=O)CSc2nccn2C)cc1	31.6 µM [falling, single point]
C(=C\c1ccccc1)/C=N/Nc1nc2ccccc2[nH]1	0.0251 µM [falling, full curve]
CCc1ccc2c(c1)cc(CN(C(=S)Nc1ccccc1Cl)C1CC1)c1nnnn12	25.1 µM [rising, single point]
COc1ccc(CCN=CC2=C(O)CC(C)(C)CC2=O)cc1	10 µM [falling, partial curve]
CCOC(=O)N1CCN(S(=O)(=O)c2ccc3[nH]cc(C(=O)O)c(=O)c3c2)CC1	2.51 µM [falling, partial curve, poor fit]
CC(NC(=O)C1CCN(S(=O)(=O)N2CCCCCC2)CC1)c1ccccc1 (stereo not drawn)	0.794 µM [falling, full curve, poor fit]
Cc1ccc(N/N=C/c2c(O)cc(C)oc2=O)cc1	15.8 µM [falling, single point]
CC(=O)CSc1nc(C(F)(F)F)cc(=O)n1-c1ccccc1	1.26 µM [falling, full curve, poor fit]
Cc1ccc(C(=O)N/N=C\c2cccn2C)cn1	12.6 µM [falling, partial curve]
COc1ccc(-c2nc3n(n2)C(c2ccc(OC)cc2)C(C(=O)Nc2cccnc2)=C(C)N3)cc1 (stereo not drawn)	20 µM [falling, single point]
COc1ccc(C/C(N)=N/OC(=O)Cc2ccccc2)cc1	5.01 µM [falling, single point]
CC(=O)SC(C)CC(=O)Nc1ccccc1 (stereo not drawn)	20 µM [falling, partial curve, poor fit]
COc1ccccc1NC(=O)NCCN1CCN(c2cccc(Cl)c2)CC1	2.82 µM [falling, full curve, poor fit]
COc1ccccc1Cn1c(=S)[nH]c2cc(C(=O)NCCN3CCOCC3)ccc2c1=O	39.8 µM [falling, partial curve, poor fit]
CCOC(=O)C1C(=O)OC2(CCCC2)C1C(=O)OCC (stereo not drawn)	5.62 µM [falling, single point]
COc1cccc2sc(NC(=O)c3ccc(Br)s3)nc12	31.6 µM [rising, single point]
CCOC(=O)c1cc2c(=O)n3ccccc3nc2n(CC(C)C)c1=NC(=O)c1c(-c2c(F)cccc2Cl)noc1C	17.8 µM [rising, single point]
Cn1c(=O)oc2cc(S(=O)(=O)Nc3ccc4c(c3)OCCO4)ccc21	2.51 µM [falling, partial curve]
C=C(C)c1cccc(C(C)(C)NC(=O)N2CCN(CC)CC2)c1	1.26 µM [rising, partial curve]
N#Cc1c(-c2ccc(Cl)cc2)ccn2nc(CCC(=O)O)nc12	15.8 µM [falling, single point]
Oc1ccc(N=Cc2ccc(O)c(O)c2)cc1	11.2 µM [falling, partial curve]

Two records drawn at random from those above:
Structure (SMILES)	AC50
CC(=O)CSc1nc(C(F)(F)F)cc(=O)n1-c1ccccc1	1.26 µM [falling, full curve, poor fit]
CCOC(=O)N1CCN(S(=O)(=O)c2ccc3[nH]cc(C(=O)O)c(=O)c3c2)CC1	2.51 µM [falling, partial curve, poor fit]

More structures:

Structure (SMILES)	AC50
CN1CCN(Cc2c(O)ccc3c2oc(=O)c2ccccc23)CC1	3.98 µM [rising, single point]
C/C(=N\NC(=O)c1c(Cl)c(C)nn1C)c1cccc(NC(=O)COc2ccccc2)c1	0.1 µM [falling, full curve, poor fit]
CCOC(=O)C1C(=O)CC(C)(O)C(C(=O)OCC)C1c1cccs1 (stereo not drawn)	1 µM [falling, full curve, poor fit]
CCOC(=O)CNC(=O)c1cn(C)c(=O)c2cc(OC)c(OC)cc12	7.94 µM [falling, partial curve]
CCCCn1nnnc1NCc1ccc(OC)c(OC)c1OC	10 µM [rising, partial curve, poor fit]
CNc1cnn(-c2ccc(C)cc2)c(=O)c1Cl	10 µM [falling, partial curve, poor fit]
O=C(Nc1ccc(Br)cc1F)c1ccncc1	0.126 µM [falling, single point]
COc1ccc(C2C(C(=O)NCCN3CCOCC3)c3ccccc3C(=O)N2C)cc1OC (stereo not drawn)	3.16 µM [falling, full curve]
COCCNC(=O)CSc1nc2ccccc2c(=O)n1CCCC(=O)NCc1ccccc1	0.0126 µM [rising, full curve, poor fit]
O=S(=O)(Nc1ccccc1F)c1ccc2nsnc2c1	0.794 µM [falling, partial curve]
CC1CCN(c2nncc3ccccc23)CC1	0.0158 µM [rising, full curve, poor fit]
COc1ccc(N2C(=O)CC(Sc3nnc(-c4ccccc4)o3)C2=O)cc1 (stereo not drawn)	12.6 µM [rising, single point]
Cc1ccc2[nH]c3c(=S)nc[nH]c3c2c1	12.6 µM [rising, partial curve]
Cc1cc(NC(=O)CCC(=O)N(c2ccccc2)C(C(=O)NC2CCCCC2)c2cccs2)no1 (stereo not drawn)	1 µM [falling, full curve]
Cc1cccc(OCC(=O)Nc2cc(C)on2)c1	0.0501 µM [rising, full curve, poor fit]
O=C1c2ccccc2C(=O)N1CCc1csc(-c2cccc(F)c2)n1	12.6 µM [rising, single point]
Cn1c(/N=C/c2ccc3c(c2)OCO3)nc2ccccc21	0.0631 µM [rising, full curve, poor fit]
O=c1cc(COn2nnc3ccc(C(F)(F)F)cc32)nc2sccn12	0.251 µM [falling, single point]
COc1ccc(S(=O)(=O)Nc2ccc(NC(C)=O)cc2)cc1	3.16 µM [falling, partial curve, poor fit]
O=C1C(c2ccccc2)C(c2ccccc2)NC(c2ccccc2)C1c1ccccc1 (stereo not drawn)	0.0316 µM [falling, full curve]
COc1ccc(S(=O)(=O)N2CCCCC2)cc1	7.94 µM [falling, partial curve, poor fit]
